Data published in patent US12336972B2, “Synergistic nutritional compositions for treating neurocognitive disorders” (CELAGENEX RESEARCH (INDIA) PVT. LTD., priority 2021, dated 2025).

System: Brain-derived neurotrophic factor (BDNF)
Experiment: Neurotrophic factors: BDNF in serum
Assay type: in vivo, Swiss albino mice

Q: For `COc1cc2c(cc1OC)C(=O)C(CC1CCN(Cc3ccccc3)CC1)C2` (stereo not shown) [Group 3, Donepezil], which “BDNF in Serum” value (Average of 6 animals) is on record?
A: The value was 19.85 ng/mL.

Q: And the “BDNF in Serum” value (animal 1)?
A: The value was 18.10 ng/mL.

Q: And the “BDNF in Serum” value (animal 2)?
A: Its value is 19.00 ng/mL.

Q: And the “BDNF in Serum” value (animal 3)?
A: The value was 21.50 ng/mL.

Q: What about the “BDNF in Serum” value (animal 4) of the same compound?
A: Its value is 20.00 ng/mL.

Q: What about the “BDNF in Serum” value (animal 5) of the same compound?
A: The value was 22.00 ng/mL.

Q: What about the “BDNF in Serum” value (animal 6) of the same compound?
A: Its value is 18.50 ng/mL.
